Record: PubChem BioAssay AID720710 (VTT Finland, 2013)
Assay: 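Genes whose loss lowers DNA synthesis when an oncogene drives replication stress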 (primary screen). Cell system: human U-2 OS bone cancer cells, parental and a cyclin E (CCNE1) overexpressing line. Reagent: single siRNA against human genes, 1 µM siRNA in the printed spot mix. Time to read-out: 67 h. Treatment: half the arrays: hydroxyurea 2 mM for 16 h, then 3 h recovery; other arrays untreated. Detection: 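EdU click signal imaged per DAPI-stained nucleus at 67 h; each spot divided by its subgrid median, then z-scored relative to non-targeting control spots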. Scale: EdU z-score, cyclin E line, hydroxyurea and EdU z-score, parental, hydroxyurea and EdU z-score, cyclin E line, untreated and EdU z-score, parental, untreated: higher = more DNA synthesis than non-targeting controls.
The whole screen tested about 1,380 reagents; below is a part drawn at random. 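One array per condition without replicates; hydroxyurea arrays received 2 mM for 16 h plus 3 h recovery.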

gene symbol | PubChem SID | EdU z-score, cyclin E line, hydroxyurea | EdU z-score, parental, hydroxyurea | EdU z-score, cyclin E line, untreated | EdU z-score, parental, untreated
H3-4 (H3.4 histone, cluster member) | SID164222148 | -0.895 | -3.37 | -1.37 | 0.861
H3-4 (H3.4 histone, cluster member) | SID164222149 | 0.745 | -0.236 | 1.65 | 1.95
ZNRF2 (zinc and ring finger 2) | SID164223032 | -0.939 | -0.828 | -0.894 | 0.398
ZNRF2 (zinc and ring finger 2) | SID164223033 | 0.53 | 1.3 | -0.714 | 0.545
PDS5B (PDS5 cohesin associated factor B) | SID164222476 | -0.619 | -2.43 | -1.48 | 0.407
PDS5B (PDS5 cohesin associated factor B) | SID164222477 | 2.79 | -1.3 | -0.343 | 1.06
ATP23 | SID164223008 | -2.18 | -1.13 | -1.64 | -0.22
ATP23 | SID164223009 | -0.689 | -1.02 | -0.801 | 1.7
H2BC7 (H2B clustered histone 7) | SID164222098 | -0.235 | -0.143 | -1.21 | -2.45
H2BC7 (H2B clustered histone 7) | SID164222099 | -0.0745 | 0.207 | -0.728 | 0.526
POLQ (DNA polymerase theta) | SID164222530 | 0.21 | -0.0164 | -5.26 | -1.42
POLQ (DNA polymerase theta) | SID164222531 | 3.74 | 2.21 | -1.85 | 0.951
H2AC8 (H2A clustered histone 8) | SID164222088 | -1.91 | -0.272 | -2.79 | -1.6
H2AC8 (H2A clustered histone 8) | SID164222089 | 0.799 | 1.69 | 0.0326 | -0.865
DDX11 (DEAD/H-box helicase 11) | SID164221880 | -1.44 | -2.52 | -0.386 | -2.48
DDX11 (DEAD/H-box helicase 11) | SID164221881 | 0.203 | 0.322 | -0.0963 | 0.105
MSH6 (mutS homolog 6) | SID164222342 | -2.61 | -0.447 | -2.17 | -1.02
MSH6 (mutS homolog 6) | SID164222343 | -0.0152 | 0.989 | -0.956 | -0.493
DUT (deoxyuridine triphosphatase) | SID164221908 | 0.717 | -0.561 | -2.92 | -1.82
DUT (deoxyuridine triphosphatase) | SID164221909 | 0.737 | 1.88 | -2.25 | 0.705
MIS12 (MIS12 kinetochore complex component) | SID164222306 | 0.0501 | -0.518 | -0.631 | -1.14
MIS12 (MIS12 kinetochore complex component) | SID164222307 | 0.459 | 1.74 | -0.104 | 0.26
LOC730394 | SID164222256 | -0.357 | -0.172 | -2.72 | -3.09
LOC730394 | SID164222257 | -0.0482 | 3.07 | -0.331 | -1.31

Records above whose target name begins with P or p (4):
gene symbol | PubChem SID | EdU z-score, cyclin E line, hydroxyurea | EdU z-score, parental, hydroxyurea | EdU z-score, cyclin E line, untreated | EdU z-score, parental, untreated
PDS5B (PDS5 cohesin associated factor B) | SID164222476 | -0.619 | -2.43 | -1.48 | 0.407
PDS5B (PDS5 cohesin associated factor B) | SID164222477 | 2.79 | -1.3 | -0.343 | 1.06
POLQ (DNA polymerase theta) | SID164222530 | 0.21 | -0.0164 | -5.26 | -1.42
POLQ (DNA polymerase theta) | SID164222531 | 3.74 | 2.21 | -1.85 | 0.951
